# Test results taken from patent US20090081697A1, “Methods of growing crystals of free and antibiotic complexed large ribosomal subunits, and methods of rationally designing or identifying antibiotics using structure coordinate data derived from such crystals” (Yeda Research and Development Co. Ltd., priority 2001, published 2009).
# Test system: D50S (large ribosomal subunit), 23S rRNA peptidyl transferase cavity
# Experiment: X-ray crystallography of antibiotic-D50S complexes
# Assay type: binding, D. radiodurans
SMILES,"Nucleotides of 23S rRNA interacting with the antibiotic (crystallized antibiotic-D50S complex, interacting moieties <4.5 Å apart, D. radiodurans numbering)",diameter of passage available for the nascent protein (space not occupied by erythromycin hosts a hydrated Mg2+ ion)
O=C(N[C@H](CO)[C@H](O)c1ccc([N+](=O)[O-])cc1)C(Cl)Cl [chloramphenicol],"nucleotides 2044, 2430, 2431, 2479 and 2483-2485",
CC[C@H]1OC(=O)[C@H](C)[C@@H](O[C@H]2C[C@@](C)(OC)[C@@H](O)[C@H](C)O2)[C@H](C)[C@@H](O[C@@H]2O[C@H](C)C[C@H](N(C)C)[C@H]2O)[C@](C)(O)C[C@@H](C)C(=O)[C@H](C)[C@@H](O)[C@]1(C)O [erythromycin],,6-7 Å
